In patent publication EP1232754A2, “Use of cationic helix peptides for treatment of sepsis and for detection and removal of endotoxins” (Commonwealth Biotechnologies, Inc., priority 2001, dated 2002):
Bridges are numbered along the chain shown (N, C = ends). Roman numbers before positions name the chains, in order. [ ]: non-standard residue; d: D form. Dap = NC[C@H](N)C(=O)O

Assay: Titration circular dichroism spectroscopy of endotoxin binding
Conditions: by CD
Protocol: Circular dichroism (CD) spectroscopy can be used to determine the fractional percent of secondary structural elements present in a peptide preparation. Titration CD spectroscopy can be used to assess the effect of binding a ligand on the reorganization of peptide structure (You, Scarsdale, and Harris 1991; Sobel, Soler, et al 1992; Soler, Sobel and Harris 1992; Tyler-Cross, Sobel et al 1993; Tyler-Cross, Sobel, Marques et al, 1994). Thus, incremental amounts of endotoxin were added to a solution of TR3 CONST and the effect of binding endotoxin by the peptide was assessed by CD spectroscopy.
By CD, Tris Arg Helix #3 (constrained) is 18% helix in solution (20°C) but complexation with endotoxin increases the helix character of the peptide to nearly 50% (Figure 3). Note that binding of endotoxin is dose dependent and saturable.

I: Ac-AEARARRAAARAARRAKKP[Dap]E-NH2 / II: Ac-AEARARRAAARAARRA / III: Ac-AEARARRAAARAARRA (amide I:18-II:C, I:20-III:C) [Tris Arg Helix #3 (constrained)]
helix character (complexation with endotoxin): ~50%
helix (in solution (20°C), without endotoxin): 18%
